Among the data in paper PMC6773865, “Functional recruitment of dynamin requires multimeric interactions for efficient endocytosis” (Nature Communications, 2019) are binding values, retold here.

Results are given in words; binding and its absence hold for the method and conditions named. Where a sequence is shown, tags or fusion partners need not be part of it.

The target of this test is SUMO-amphSH3 (SH3 domain of murine amphiphysin1 fused to the small ubiquitin-like modifier) (murine) (UniProt Q7TQF7). Description: SEC; analytical size exclusion chromatography, Superdex200 Increase 10/300 GL, PBS + 0.01% Tween-20, 0.75 mL/min; both purified. A general note: SEC sorts molecules by how far they enter the pores of the column.

B1: SUMO-amphSH3 (SH3 domain of murine amphiphysin1 fused to the small ubiquitin-like modifier) (domain or fragment, UniProt Q7TQF7 607-686)
chain: TQELPPGFLYKVETLHDFEAANSDELNLQRGDVVLVVPSDSEADQDAGWLVGVKESDWLQYRDLATYKGLFPENFTRRLE
With B1, the binding entry was “no binding”.
